Patent publication US20180237756

Columns and labels:
Assay in all cases: activity assay
[1] = target: T1, TNQ (TgoT Y409N E664Q) (Thermococcus gorgonarius) (UniProt P56689); conditions: primer strand is RNA; supF tRNA synthesis, 65 C; purified recombinant protein; label: 5'FITC primer; DNA:RNA hybrid
T1 sequence (limits assumed): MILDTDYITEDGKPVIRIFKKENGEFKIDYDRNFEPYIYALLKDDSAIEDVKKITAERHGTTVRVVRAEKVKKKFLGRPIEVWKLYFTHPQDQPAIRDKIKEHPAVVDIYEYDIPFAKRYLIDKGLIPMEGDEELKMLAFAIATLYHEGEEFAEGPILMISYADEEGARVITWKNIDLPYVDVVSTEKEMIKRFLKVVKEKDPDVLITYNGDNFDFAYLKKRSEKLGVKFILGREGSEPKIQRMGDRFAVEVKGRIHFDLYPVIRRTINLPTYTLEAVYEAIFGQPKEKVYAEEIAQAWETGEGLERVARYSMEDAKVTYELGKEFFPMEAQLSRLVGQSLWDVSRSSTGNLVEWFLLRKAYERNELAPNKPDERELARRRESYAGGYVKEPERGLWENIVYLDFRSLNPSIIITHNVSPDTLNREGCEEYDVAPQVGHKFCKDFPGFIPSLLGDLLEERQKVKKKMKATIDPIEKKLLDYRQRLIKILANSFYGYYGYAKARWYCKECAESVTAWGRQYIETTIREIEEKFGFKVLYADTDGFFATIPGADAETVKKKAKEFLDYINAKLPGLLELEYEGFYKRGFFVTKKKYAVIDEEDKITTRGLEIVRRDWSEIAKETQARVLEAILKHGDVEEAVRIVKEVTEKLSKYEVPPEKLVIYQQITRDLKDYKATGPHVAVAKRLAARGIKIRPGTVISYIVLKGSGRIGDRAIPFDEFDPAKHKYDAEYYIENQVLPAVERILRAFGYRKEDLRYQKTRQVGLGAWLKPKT

[2] = target: T2, TGK (TgoT Y409G E664K) (Thermococcus gorgonarius) (UniProt P56689); conditions: primer strand is RNA; supF tRNA synthesis, 65 C; purified recombinant protein; label: 5'FITC primer; DNA:RNA hybrid
T2 sequence (limits assumed): T1 sequence (limits assumed) with N409G, Q664K

[3] = target: T3, D4N (D4 Y409N, D4N3) (Thermococcus gorgonarius) (UniProt P56689); conditions: primer strand is RNA; 65-nt supF tRNA synthesis, 65 C; purified recombinant protein; label: 5'FITC primer; DNA:RNA hybrid
T3 sequence (limits assumed): T1 sequence (limits assumed) with P657T, E658Q, K659H, Y663H, D669A, K671N, T676I

“CAGGAAACAGCTATGACAAATGGTGGTGGGG / GGTGGGGTTCCCGAGCGGCCAAAGGGAGCAGACTCTAAATCTGCCGTCATCGACTTCGAAGGTTCGAATCCTTCCCCCACCACCA [YtRHNA2HNA2 RNA primer / tRNAtemp1]” was tested, and the activity on this sequence (min to full length) [1] was < 10, the activity on this sequence (s to full length) [2] was < 30 and the activity on this sequence (min to full length) [3] was 20.

Where a chain is given by its changes, count along the chain named. The exact form of at least one protein or probe is not confirmed. Protein sequences can lack the tags named with them.
